Values from PubChem BioAssay AID1508597 (Cure First, 2020).
Shown is an unselected part of the about 2,100 reagents, in one setting of the screen. 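Calls flag viability under 80% in either arm, not effects specific to rucaparib; the reference for percent is not stated.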 A number with no mark means an inactive call. A reagent listed more than once was tested more than once; the source does not tell the runs apart. Reagent sequences are not shown. Not given: the 100% reference.

Purpose: 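Survival screen with siRNA in ovarian cancer cells derived from patients, with or without rucaparib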 (primary screen)
Cells: human ovarian carcinoma lines grown from tumours: OCI-P5x (papillary serous) and OCI-C5x (clear cell)
Reagent: siRNA pool against human genes, 1.25 pmol siRNA per well
Duration: 72 h or 96 h, depending on the cell culture
Treatment: rucaparib 20 µM (about IC30) or vehicle, present until read-out
Rucaparib or vehicle: Rucaparib
Cell line: OCI-C5x (clear cell)
Detection: 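Luminescent ATP-based viability assay read 72 or 96 h after transfection, depending on culture, given as normalised percent viability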
Direction: viability, normalised: higher = more viable cells remaining
Active means: 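a well counts as a hit if its normalised viability is under 80 percent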
Calls: active = viability under 80%; inactive = viability 80% or more

gene knocked down,technical replicate,"viability, normalised (%)"
ARL8A (ARF like GTPase 8A),1,57.3 (active)
ARL8A (ARF like GTPase 8A),2,72.9 (active)
ARL8A (ARF like GTPase 8A),3,64.9 (active)
TAOK2 (TAO kinase 2),1,66 (active)
TAOK2 (TAO kinase 2),2,59 (active)
TAOK2 (TAO kinase 2),3,71.6 (active)
BRD7P3 (bromodomain containing 7 pseudogene 3),1,63.6 (active)
BRD7P3 (bromodomain containing 7 pseudogene 3),2,53.2 (active)
BRD7P3 (bromodomain containing 7 pseudogene 3),3,33.1 (active)
CHMP5 (charged multivesicular body protein 5),1,41.1 (active)
CHMP5 (charged multivesicular body protein 5),2,44.5 (active)
CHMP5 (charged multivesicular body protein 5),3,33.4 (active)
SBDS (SBDS ribosome maturation factor),1,72 (active)
SBDS (SBDS ribosome maturation factor),2,72.4 (active)
SBDS (SBDS ribosome maturation factor),3,66.6 (active)
LIG1 (DNA ligase 1),1,54.8 (active)
LIG1 (DNA ligase 1),2,53.3 (active)
LIG1 (DNA ligase 1),3,76.6 (active)
RERE (arginine-glutamic acid dipeptide repeats),1,53.2 (active)
RERE (arginine-glutamic acid dipeptide repeats),2,49.1 (active)
RERE (arginine-glutamic acid dipeptide repeats),3,49 (active)
USB1 (U6 snRNA biogenesis phosphodiesterase 1),1,58.8 (active)
USB1 (U6 snRNA biogenesis phosphodiesterase 1),2,46.2 (active)
USB1 (U6 snRNA biogenesis phosphodiesterase 1),3,46.6 (active)
XRCC5 (X-ray repair cross complementing 5),1,60.4 (active)
XRCC5 (X-ray repair cross complementing 5),2,50.2 (active)
XRCC5 (X-ray repair cross complementing 5),3,47.3 (active)
ARID1B (AT-rich interaction domain 1B),1,62.4 (active)
ARID1B (AT-rich interaction domain 1B),2,61.3 (active)
ARID1B (AT-rich interaction domain 1B),3,53.2 (active)
NME2 (NME/NM23 nucleoside diphosphate kinase 2),1,38.2 (active)
NME2 (NME/NM23 nucleoside diphosphate kinase 2),2,32.5 (active)
NME2 (NME/NM23 nucleoside diphosphate kinase 2),3,37.8 (active)
RNF17 (ring finger protein 17),1,48.6 (active)
RNF17 (ring finger protein 17),2,38.2 (active)
RNF17 (ring finger protein 17),3,41.1 (active)
MAP3K20 (mitogen-activated protein kinase kinase kinase 20),1,51 (active)
MAP3K20 (mitogen-activated protein kinase kinase kinase 20),2,74.7 (active)
MAP3K20 (mitogen-activated protein kinase kinase kinase 20),3,64.6 (active)
DLG5 (discs large MAGUK scaffold protein 5),1,37.4 (active)
DLG5 (discs large MAGUK scaffold protein 5),2,44.2 (active)
DLG5 (discs large MAGUK scaffold protein 5),3,39.6 (active)
PRKD2 (protein kinase D2),1,49.6 (active)
PRKD2 (protein kinase D2),2,39.9 (active)
PRKD2 (protein kinase D2),3,38.9 (active)
PRDM10 (PR/SET domain 10),1,47 (active)
PRDM10 (PR/SET domain 10),2,45.5 (active)
PRDM10 (PR/SET domain 10),3,40.1 (active)
MACROD2 (mono-ADP ribosylhydrolase 2),1,59 (active)
MACROD2 (mono-ADP ribosylhydrolase 2),2,44.9 (active)
MACROD2 (mono-ADP ribosylhydrolase 2),3,43.8 (active)
LIG4 (DNA ligase 4),1,50.6 (active)
LIG4 (DNA ligase 4),1,53.3 (active)
LIG4 (DNA ligase 4),2,37.6 (active)
LIG4 (DNA ligase 4),2,60.3 (active)
LIG4 (DNA ligase 4),3,50.4 (active)
LIG4 (DNA ligase 4),3,49.3 (active)
MAD2L1 (mitotic arrest deficient 2 like 1),1,55.7 (active)
MAD2L1 (mitotic arrest deficient 2 like 1),2,59.5 (active)
MAD2L1 (mitotic arrest deficient 2 like 1),3,70.4 (active)
YBX1 (Y-box binding protein 1),1,46.8 (active)
YBX1 (Y-box binding protein 1),2,44.4 (active)
YBX1 (Y-box binding protein 1),3,40.2 (active)
NRCAM (neuronal cell adhesion molecule),1,43.1 (active)
NRCAM (neuronal cell adhesion molecule),2,31.6 (active)
NRCAM (neuronal cell adhesion molecule),3,39.1 (active)
EED (embryonic ectoderm development),1,46.2 (active)
EED (embryonic ectoderm development),2,23.8 (active)
EED (embryonic ectoderm development),3,30.5 (active)
ABCG2 (ATP binding cassette subfamily G member 2 (JR blood group)),1,74.4 (active)
ABCG2 (ATP binding cassette subfamily G member 2 (JR blood group)),2,63 (active)
ABCG2 (ATP binding cassette subfamily G member 2 (JR blood group)),3,82.5
PAK2 (p21 (RAC1) activated kinase 2),1,47.7 (active)
PAK2 (p21 (RAC1) activated kinase 2),2,48.6 (active)
PAK2 (p21 (RAC1) activated kinase 2),3,45.8 (active)

A run of entries of the results above, as a working copy:
gene knocked down,technical replicate,"viability, normalised (%)"
DLG5 (discs large MAGUK scaffold protein 5),2,44.2 (active)
DLG5 (discs large MAGUK scaffold protein 5),3,39.6 (active)
PRKD2 (protein kinase D2),1,49.6 (active)
PRKD2 (protein kinase D2),2,39.9 (active)
PRKD2 (protein kinase D2),3,38.9 (active)
PRDM10 (PR/SET domain 10),1,47 (active)
